# Earlier results as cited in paper doi:10.1101/2020.05.21.106633v1 (bioRxiv, 2020).
# Conditions: cited from earlier work
compound,measurement,value
"CC[C@@]1(O)C(=O)OCc2c1cc1n(c2=O)Cc2cc3ccccc3nc2-1 [CPT, camptothecin]",solubility,poor solubility
